Source: paper PMC8482365
Results are given in words; binding and its absence hold for the method and conditions named. Binding seen in cells or lysates may run through a third protein.

By UniProt entry, the sequences of proteins in these tests, tags left out.
UniProt P04406: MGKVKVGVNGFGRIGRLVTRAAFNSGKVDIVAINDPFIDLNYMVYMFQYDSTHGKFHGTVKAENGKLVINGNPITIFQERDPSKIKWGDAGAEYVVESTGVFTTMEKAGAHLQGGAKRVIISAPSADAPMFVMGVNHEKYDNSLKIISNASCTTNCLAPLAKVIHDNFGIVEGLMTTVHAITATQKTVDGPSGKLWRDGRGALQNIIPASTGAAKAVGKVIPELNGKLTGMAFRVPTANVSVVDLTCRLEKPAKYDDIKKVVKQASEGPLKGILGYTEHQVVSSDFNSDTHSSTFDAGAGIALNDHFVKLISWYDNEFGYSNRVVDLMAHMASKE

Target: GAPDH from the membrane fraction of THP-1 phagocytes (human (endogenous in THP-1)) (UniProt P04406)
Assay: co-IP; THP-1 membrane fraction alone; GAPDH immunoprecipitated with monoclonal mouse anti-GAPDH on anti-mouse-IgG Magnabeads; blot probed with anti-human CD14

B1: CD14 from the membrane fraction of THP-1 phagocytes (receptor, UniProt P08571 20-345)
chain: TTPEPCELDDEDFRCVCNFSEPQPDWSEAFQCVSAVEVEIHAGGLNLEPFLKRVDADADPRQYADTVKALRVRRLTVGAAQVPAQLLVGALRVLAYSRLKELTLEDLKITGTMPPLPLEATGLALSSLRLRNVSWATGRSWLAELQQWLKPGLKVLSIAQAHSPAFSCEQVRAFPALTSLDLSDNPGLGERGLMAALCPHKFPAIQNLALRNTGMETPTGVCAALAAAGVQPHSLDLSHNSLRATVNPSAPRCMWSSALNSLNLSFAGLEQVPKGLPAKLRVLDLSCNRLNRAPQPDELPEVDNLTLDGNPFLVPGTALPHEGSMN
binding: no binding
